Consider one molecule from article doi:10.1101/2020.11.25.395806.

By UniProt entry, the sequences of proteins in these tests, tags left out. Where a name states a change or a piece, a line headed by the entry shows the natural chain unless it says otherwise.
UniProt P50605: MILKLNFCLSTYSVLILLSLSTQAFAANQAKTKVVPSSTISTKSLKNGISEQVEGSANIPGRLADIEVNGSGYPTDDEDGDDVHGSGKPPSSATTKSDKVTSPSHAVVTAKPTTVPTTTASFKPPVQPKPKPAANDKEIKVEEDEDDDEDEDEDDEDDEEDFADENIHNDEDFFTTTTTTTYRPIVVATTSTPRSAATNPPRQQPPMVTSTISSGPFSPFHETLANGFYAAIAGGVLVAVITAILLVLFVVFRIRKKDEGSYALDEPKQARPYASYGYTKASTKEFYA

The target in the test is GST fusion of the intracellular domain of SDN-1, full size (SDN-1ICD) (C. elegans) (UniProt P50605). Put plainly: pull-down.

Results are given in words; binding and its absence hold for the method and conditions named. Binding seen in cells or lysates may run through a third protein. Binding can be weak; no strength is given. Sequences can lack the tags named with a protein.

B1: HA tagged LIN-2B (protein, UniProt P54936-2 1-620)
chain: MSSAATPPPMEHTSSEDSTTAPLQTPSSSSCLDVTVAVGTSVSYLKASPLVSSPTSLVVDITESSSTLLYDKIKALPCEPVVTEVDTSTLRKETLNQIDGLLGPSPEALELRQLLNSPHLASCVQALDVVVCEIRDPKNEASGSGDKEGNCVSSDPAPAYLNGGVLPLGAQRAGTSFEHFNQSAVHTSYDEEEEELYDCMSRLRLVQFQKDTQEPMGITLKVNEDGRCFVARIMHGGMIHRQATLHVGDEIREINGMSVANRSVESLQEMLRDARGQVTFKIIPSYRSAPPACEIFVRAQFDYEPSQDDLIPCPQAGIPFKTGDILQVISKDDHNWWQARFVSSFPSIGNSSNAQRSNQQQVAGLIPSPELQEWRTACLAMERSKNTCNTHCMWFNKKKKYYTTKYLQKHSALFDQLDLVTYEEVMRLSQYRRKTLVLLGAHGVGRRHIKNTLIHRHPNRFAYPIPHTTRPPRKDEVDGKHYYFVTNEQMMADIQNNEYLEYGTHEESMYGTKLETIRNIHKSGKIAILDVEPQALKVLRTAEYSPFVVFIAAPNLQGMQDPDGSLEKLLNESDVLRQAFGHLFDFIITNSDIDDTIAQLERLVEKLPAYPQWLPVTWVY
As to B1, the binding result is on record as “binds”.
